Taken from: PubChem BioAssay AID652272 (Drosophila RNAi Screening Center, 2013)

- Aim: 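Finding fly genes that regulate Hedgehog signal transduction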 (primary screen)
- Cell system: Drosophila clone 8 (Cl8) cells
- Reagent: long dsRNA against Drosophila genes
- Detection: 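Plate reader light from a firefly reporter under a ptc promoter fragment that responds to Hedgehog, with Renilla light as transfection reference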
- Direction: firefly Hh reporter signal: higher = more ptc reporter light; Renilla reference signal: higher = more Renilla control light
- Hit rule: 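Called a hit if the two-replicate mean z-score lies below -2 or above +3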
- Meaning of the calls: active = hit: reporter lowered or raised; inactive = not a hit
The screen tested about 21,000 reagents; shown is a random part of those with a known target gene and a result. In the full data, 503 (2.4%) got an active call. 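Raw plate light values, not normalised; calls rest on replicate z-scores that were not deposited; hits include reporter decreases as well as increases.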 A plus sign joins genes that one reagent is predicted to hit. No sequences are given here. The record does not give: the amount of reagent, the time to read-out.

gene | amplicon | firefly Hh reporter signal, replicate 1 | firefly Hh reporter signal, replicate 2 | firefly Hh reporter signal, replicate 3 | Renilla reference signal, replicate 1 | Renilla reference signal, replicate 2 | Call
CG18659 (GeneID 35929) | DRSC06784 | 87905 | 57056 | – | 2148 | 4624 | inactive
Gbp1 (GeneID 36936) | DRSC06592 | 79894 | 42066 | – | 2160 | 3637 | inactive
lobo (GeneID 4379864) | DRSC14662 | 5.72e5 | 77818 | – | 28347 | 5920 | inactive
lobo (GeneID 4379864) | DRSC14663 | 5.03e5 | 78653 | – | 26496 | 5963 | inactive
Cpr67Fa2 (GeneID 39224) | DRSC10315 | 79448 | 56202 | 69189 | 5664 | 5620 | inactive
eloF (GeneID 41211) | DRSC15162 | 71223 | 1.16e5 | – | 2400 | 3170 | inactive
Atg5 (GeneID 31666) | DRSC18112 | 81259 | 98425 | – | 1826 | 1924 | inactive
obst-J (GeneID 40202) | DRSC10821 | 75046 | 1.37e5 | – | 1728 | 3557 | inactive
Mdr50 (GeneID 36582) | DRSC07467 | 1.37e5 | 35906 | – | 3481 | 468 | inactive
Sas10 (GeneID 31447) | DRSC18355 | 69187 | 3.34e5 | – | 1724 | 13645 | inactive
CG14074 (GeneID 40051) | DRSC10079 | 99526 | – | – | 2444 | 2083 | inactive
c12.2 (GeneID 53434) | DRSC18751 | 43722 | 1.15e5 | – | 1239 | 5541 | inactive
Egfr (GeneID 37455) | DRSC03871 | 1.33e5 | 2.64e5 | – | 3920 | 12801 | inactive
Egfr (GeneID 37455) | DRSC04613 | 1.26e5 | 52368 | – | 4768 | 2452 | inactive
CG9014 (GeneID 34777) | DRSC01979 | 1.03e5 | 75869 | – | 2764 | 7145 | inactive
CG8303 (GeneID 36858) | DRSC07140 | 75346 | 55163 | – | 1882 | 4219 | inactive
Rala (GeneID 31332) | DRSC18703 | 79169 | 2.89e5 | – | 2315 | 11072 | inactive
shv (GeneID 33220) | DRSC00640 | 1.28e5 | 1.21e5 | – | 2896 | 2690 | inactive
CG15042 (GeneID 32844) | DRSC19618 | 92214 | 2.13e5 | – | 2841 | 9431 | inactive
Esyt2 (GeneID 42929) | DRSC16082 | 1.02e5 | 83097 | – | 4817 | 3724 | inactive
Srp19 (GeneID 38815) | DRSC11288 | 59876 | 56348 | – | 6936 | 3840 | inactive
CG7656 (GeneID 39691) | DRSC10900 | 1.27e5 | 71313 | – | 5462 | 3174 | inactive
CG1979 (GeneID 40837) | DRSC12495 | 95971 | 61721 | – | 4065 | 2360 | inactive
CG14610 + asRNA:CR42738 | DRSC12554 | 60692 | 98099 | – | 2493 | 2916 | inactive
Targ3 (GeneID 5740205) | DRSC11471 | 3.15e5 | – | – | 7113 | – | inactive
CG14313 (GeneID 42176) | DRSC14792 | 5.75e5 | 91205 | – | 29532 | 2183 | inactive
CG12934 (GeneID 36124) | DRSC06247 | 71171 | 52935 | – | 1600 | 3827 | inactive
Not1 (GeneID 5740252) | DRSC06787 | 50456 | 29600 | – | 2513 | 4906 | active
Not1 (GeneID 5740252) | DRSC06794 | 18409 | 18336 | – | 1225 | 1264 | inactive
CG34135 + Nasp + CG11768 | DRSC14377 | 57011 | 71856 | – | 2304 | 4068 | inactive
CG34135 + Nasp + CG11768 | DRSC16397 | 50440 | 59456 | – | 2329 | 7289 | inactive
lncRNA:bxd (GeneID 3772220) | DRSC13176 | 1896 | 2.80e5 | – | 513 | 6147 | inactive
CG9801 (GeneID 41044) | DRSC16568 | 85160 | 55253 | – | 3520 | 2348 | inactive
CycK (GeneID 49816) | DRSC03714 | 1.17e5 | 92784 | – | 4336 | 3731 | inactive

Continued, starting with the last 3 of the part before.
gene | amplicon | firefly Hh reporter signal, replicate 1 | firefly Hh reporter signal, replicate 2 | firefly Hh reporter signal, replicate 3 | Renilla reference signal, replicate 1 | Renilla reference signal, replicate 2 | Call
lncRNA:bxd (GeneID 3772220) | DRSC13176 | 1896 | 2.80e5 | – | 513 | 6147 | inactive
CG9801 (GeneID 41044) | DRSC16568 | 85160 | 55253 | – | 3520 | 2348 | inactive
CycK (GeneID 49816) | DRSC03714 | 1.17e5 | 92784 | – | 4336 | 3731 | inactive
Cbp80 (GeneID 44409) | DRSC18450 | 1.00e5 | 76902 | – | 2568 | 2756 | inactive
Mcm3 (GeneID 31449) | DRSC18679 | 92512 | 59463 | – | 2016 | 1361 | inactive
Gyc88E (GeneID 41825) | DRSC15547 | 1.24e5 | 1.34e5 | – | 4213 | 3789 | inactive
Syt14 (GeneID 40544) | DRSC12331 | 1.32e5 | 1.48e5 | – | 4498 | 8391 | inactive
CG7164 (GeneID 34061) | DRSC03018 | 1.24e5 | 60529 | – | 3027 | 5389 | inactive
CG12171 (GeneID 40690) | DRSC12200 | 59968 | 1.05e5 | – | 2859 | 3154 | inactive
CG4830 (GeneID 41477) | DRSC15657 | 79256 | 89603 | – | 2369 | 2214 | inactive
CG14687 (GeneID 41297) | DRSC14910 | 1.21e5 | 2.06e5 | – | 2150 | 5546 | inactive
Tep5Psi (GeneID 35250) | DRSC02183 | 88336 | 59766 | – | 2208 | 5617 | inactive
Tep5Psi (GeneID 35250) | DRSC02184 | 87204 | 69173 | – | 2113 | 5396 | inactive
CG8229 + CG33199 | DRSC05134 | 1.43e5 | 2.22e5 | – | 3413 | 9434 | inactive
Plekhm1 (GeneID 37520) | DRSC04527 | 78656 | 59604 | – | 2004 | 5241 | inactive
CG9727 (GeneID 40794) | DRSC12585 | 1.28e5 | 68933 | – | 5152 | 2929 | inactive
Drgx (GeneID 5740176) | DRSC00278 | 1.32e5 | 62924 | – | 3163 | 5674 | inactive
Drgx (GeneID 5740176) | DRSC00537 | 1.48e5 | 62893 | – | 3772 | 5952 | inactive
Mocs1 (GeneID 39238) | DRSC11225 | 49590 | 55400 | 52633 | 4394 | 3313 | inactive
lncRNA:CR43451 (GeneID 12798473) | DRSC13352 | 54976 | 2.22e5 | – | 12027 | 5565 | inactive
CG13082 (GeneID 35244) | DRSC02186 | 73986 | 41468 | – | 2144 | 4001 | inactive
CG18682 (retired record) (GeneID 50098) | DRSC15373 | 1.19e5 | 69602 | – | 4082 | 1756 | inactive
CG18682 (retired record) (GeneID 50098) | DRSC15374 | 98576 | 5.29e5 | 77204 | 3276 | 2608 | inactive
Cox17 (GeneID 32439) | DRSC20145 | 1.55e5 | 3.15e5 | – | 4043 | 12182 | inactive
ATPsyngamma (GeneID 43507) | DRSC14094 | 57345 | 61121 | – | 2484 | 1498 | inactive
CG9698 (GeneID 43629) | DRSC16539 | 45132 | 90552 | – | 1360 | 2042 | inactive
